The text below walks through data of publication PMC10089214.

Amino acid sequences for entries named in this document (tags omitted).
UniProt Q92793: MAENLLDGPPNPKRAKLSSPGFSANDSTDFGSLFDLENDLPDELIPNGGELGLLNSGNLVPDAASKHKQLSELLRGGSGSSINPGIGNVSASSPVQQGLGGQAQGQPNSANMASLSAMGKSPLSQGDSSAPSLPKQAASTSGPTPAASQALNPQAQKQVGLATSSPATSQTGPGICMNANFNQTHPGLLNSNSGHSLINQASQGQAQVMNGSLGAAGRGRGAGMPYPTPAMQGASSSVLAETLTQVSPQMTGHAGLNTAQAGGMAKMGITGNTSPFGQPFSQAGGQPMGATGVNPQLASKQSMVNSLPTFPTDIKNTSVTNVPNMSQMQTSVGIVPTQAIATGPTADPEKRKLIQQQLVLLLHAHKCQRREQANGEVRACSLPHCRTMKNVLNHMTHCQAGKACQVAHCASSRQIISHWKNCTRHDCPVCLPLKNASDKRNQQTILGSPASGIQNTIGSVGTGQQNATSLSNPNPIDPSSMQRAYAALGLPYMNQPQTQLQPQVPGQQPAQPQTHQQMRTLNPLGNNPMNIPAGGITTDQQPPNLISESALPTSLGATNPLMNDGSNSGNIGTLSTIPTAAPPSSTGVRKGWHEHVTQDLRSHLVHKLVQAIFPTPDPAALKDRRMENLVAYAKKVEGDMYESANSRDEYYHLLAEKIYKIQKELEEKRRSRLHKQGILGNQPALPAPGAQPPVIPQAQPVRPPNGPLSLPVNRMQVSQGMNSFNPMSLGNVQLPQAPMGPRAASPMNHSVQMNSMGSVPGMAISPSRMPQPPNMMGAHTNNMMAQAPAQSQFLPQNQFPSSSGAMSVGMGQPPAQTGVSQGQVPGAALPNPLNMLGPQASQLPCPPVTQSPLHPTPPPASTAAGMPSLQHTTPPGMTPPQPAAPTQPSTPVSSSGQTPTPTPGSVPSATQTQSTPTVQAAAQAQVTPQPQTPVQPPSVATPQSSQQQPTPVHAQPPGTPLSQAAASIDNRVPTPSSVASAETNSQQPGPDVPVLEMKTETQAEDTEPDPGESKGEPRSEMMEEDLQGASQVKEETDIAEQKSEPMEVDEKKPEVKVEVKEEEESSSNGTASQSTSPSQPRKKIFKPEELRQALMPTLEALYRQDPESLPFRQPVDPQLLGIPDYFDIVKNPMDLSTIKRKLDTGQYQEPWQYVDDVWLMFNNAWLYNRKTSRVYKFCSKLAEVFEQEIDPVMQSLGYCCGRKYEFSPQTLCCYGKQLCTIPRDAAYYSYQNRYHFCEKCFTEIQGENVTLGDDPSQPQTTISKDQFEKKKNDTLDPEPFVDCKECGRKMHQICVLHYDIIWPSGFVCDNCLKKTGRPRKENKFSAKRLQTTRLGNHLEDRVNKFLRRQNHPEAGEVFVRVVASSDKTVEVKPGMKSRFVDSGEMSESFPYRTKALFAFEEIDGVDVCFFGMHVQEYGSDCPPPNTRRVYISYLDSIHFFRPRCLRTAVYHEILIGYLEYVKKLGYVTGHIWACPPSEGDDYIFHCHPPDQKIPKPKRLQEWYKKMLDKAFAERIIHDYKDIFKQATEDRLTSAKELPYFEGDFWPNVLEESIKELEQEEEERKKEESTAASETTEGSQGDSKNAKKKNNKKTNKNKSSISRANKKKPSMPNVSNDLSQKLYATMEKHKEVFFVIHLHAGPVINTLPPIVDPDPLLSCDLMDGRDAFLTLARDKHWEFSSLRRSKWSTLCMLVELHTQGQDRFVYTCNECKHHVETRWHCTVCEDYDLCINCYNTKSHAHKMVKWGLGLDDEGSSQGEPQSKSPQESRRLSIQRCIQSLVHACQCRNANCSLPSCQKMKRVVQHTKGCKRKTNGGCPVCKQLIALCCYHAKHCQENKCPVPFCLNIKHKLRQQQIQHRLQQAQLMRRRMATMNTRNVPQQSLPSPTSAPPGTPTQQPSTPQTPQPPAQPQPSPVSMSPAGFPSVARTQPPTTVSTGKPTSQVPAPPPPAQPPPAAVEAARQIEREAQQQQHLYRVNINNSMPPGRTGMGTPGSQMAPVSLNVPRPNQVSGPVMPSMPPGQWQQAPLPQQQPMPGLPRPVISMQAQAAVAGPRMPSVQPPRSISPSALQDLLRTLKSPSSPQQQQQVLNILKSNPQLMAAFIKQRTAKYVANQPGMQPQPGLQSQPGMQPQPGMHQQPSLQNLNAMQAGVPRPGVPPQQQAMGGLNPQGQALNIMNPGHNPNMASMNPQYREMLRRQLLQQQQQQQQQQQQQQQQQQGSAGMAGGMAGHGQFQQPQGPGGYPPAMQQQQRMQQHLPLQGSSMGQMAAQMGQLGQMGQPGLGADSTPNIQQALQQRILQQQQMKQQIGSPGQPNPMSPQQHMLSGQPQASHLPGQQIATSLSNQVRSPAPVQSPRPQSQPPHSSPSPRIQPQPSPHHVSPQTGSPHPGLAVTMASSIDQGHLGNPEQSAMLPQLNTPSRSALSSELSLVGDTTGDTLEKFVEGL

In this test the target is KMT2D (endogenous) (human (endogenous in SUDHL4, LY7 and tonsil B cells)) (UniProt O14686). Put plainly: co-IP; endogenous proteins in nuclear extracts of SUDHL4 and LY7 DLBCL cells; IP with anti-KMT2D antibody (or control IgG) and reverse IP with anti-CREBBP antibody, overnight at 4 °C; immunoblot.

Results are given in words; binding and its absence hold for the method and conditions named. Binding seen in cells or lysates may run through a third protein. Some binding calls cover weakened binding; strength is not graded here.

Regarding “CREBBP (endogenous) (from UniProt Q92793 1-2442) (enzyme)”, the binding entry was “binds”.
